For 1 molecule, binding results are on record in publication PMC9338922, “DltC acts as an interaction hub for AcpS, DltA and DltB in the teichoic acid D-alanylation pathway of Lactiplantibacillus plantarum” (Scientific Reports, 2022).

No constants are given. Whether binding was seen depends on the method and setting. Sequences can lack the tags named with a protein.

The target of assay [1] is T1, apo-DltC1-S38A, C-terminal His6 tag (Lactiplantibacillus plantarum) (UniProt Q88VM8).
T1 sequence: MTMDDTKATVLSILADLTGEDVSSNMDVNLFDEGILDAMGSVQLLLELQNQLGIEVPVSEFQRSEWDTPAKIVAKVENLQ
Description: MST; one protein labelled with NHS red fluorescent dye (RED-NHS Monolith NT kit); Hepes 25 mM pH 7.5, NaCl 300 mM, Tween20 0.05%; 22 °C; triplicate; both purified.

The target in assay [2] is T1, apo-DltC1-S38A, C-terminal His6 tag (Lactiplantibacillus plantarum). Description: NMR titration; unlabelled DltA proteins added to 15N-labelled apo- or holo-DltC1 (150 to 300 μM); 1H,15N BEST-TROSY, 25 °C, 20 mM HEPES pH 6.5, 150 mM NaCl, 7% D2O; both purified.

B1: DltA-5 M mutant (K366A, K369A, D401A, Y435A, K440A), C-terminal His6 tag (enzyme, UniProt Q88VM6 1-508)
chain: MIKNIITTIDDYARTQPNNVVYDVQGVTHTYAELKAYSDALAAHLDTLDLPAKDPIIVFGGQTFEMIATFLGVVKSGRAYIPIDTHSPNERLTMINEIAKPAAVIAVADLPTGVGTTPVITPDQLAAIFATPVDYQADHVVSGDDNYYIIFTSGTTGMPKGVQISHDNLVSYVDWMLSDDFGLPDQPNSLSQPPYSFDLSVMDVYPTLALGGTLYALPKAVTDDFKQLFAALPTLPINVWVSTPSFMDICLLEPKFNAENLPTLTHFLFCGEELTHKTAATLKKRFPDARIFNTYGPTETCVAVTQIEITDAALAQYDRLPIGYAKADTRILVVDENGEAVPNGTEGELIIAGPSVSKGYLNNSEATAAAFFELDGQPAYHSGDIGTMDADGLFRYRGRVAFQIKMHGYRIELEEVDHFLAQQQHIKQAVAVPKADKEHAVTQMIAYVVPKPNDFESDFALTTAIKKDLQGMMMEYMIPQRFVYQTSLPLTPNGKIDVKSIIKEVNPE
Turning to B1, the binding result in assay [1] was “no binding”; in assay [2], “no binding (tested: protein-to-protein ratio up to 1.8)”.
